The results in this text go back to paper doi:10.1101/2022.01.24.477493.

The chains behind the UniProt entries cited, without tags or fusion partners. Residues count along the entry.
UniProt Q9D5T0, whole entry: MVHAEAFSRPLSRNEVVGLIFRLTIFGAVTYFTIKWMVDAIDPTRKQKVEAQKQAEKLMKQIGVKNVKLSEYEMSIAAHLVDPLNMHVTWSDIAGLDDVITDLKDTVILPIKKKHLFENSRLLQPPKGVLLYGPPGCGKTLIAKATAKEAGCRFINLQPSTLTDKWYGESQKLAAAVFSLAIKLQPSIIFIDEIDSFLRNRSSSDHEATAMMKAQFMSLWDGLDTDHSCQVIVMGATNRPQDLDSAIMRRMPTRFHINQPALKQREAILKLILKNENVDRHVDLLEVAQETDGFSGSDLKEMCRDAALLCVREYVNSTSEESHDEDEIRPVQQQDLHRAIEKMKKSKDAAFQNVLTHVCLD
UniProt O08529, 20-700: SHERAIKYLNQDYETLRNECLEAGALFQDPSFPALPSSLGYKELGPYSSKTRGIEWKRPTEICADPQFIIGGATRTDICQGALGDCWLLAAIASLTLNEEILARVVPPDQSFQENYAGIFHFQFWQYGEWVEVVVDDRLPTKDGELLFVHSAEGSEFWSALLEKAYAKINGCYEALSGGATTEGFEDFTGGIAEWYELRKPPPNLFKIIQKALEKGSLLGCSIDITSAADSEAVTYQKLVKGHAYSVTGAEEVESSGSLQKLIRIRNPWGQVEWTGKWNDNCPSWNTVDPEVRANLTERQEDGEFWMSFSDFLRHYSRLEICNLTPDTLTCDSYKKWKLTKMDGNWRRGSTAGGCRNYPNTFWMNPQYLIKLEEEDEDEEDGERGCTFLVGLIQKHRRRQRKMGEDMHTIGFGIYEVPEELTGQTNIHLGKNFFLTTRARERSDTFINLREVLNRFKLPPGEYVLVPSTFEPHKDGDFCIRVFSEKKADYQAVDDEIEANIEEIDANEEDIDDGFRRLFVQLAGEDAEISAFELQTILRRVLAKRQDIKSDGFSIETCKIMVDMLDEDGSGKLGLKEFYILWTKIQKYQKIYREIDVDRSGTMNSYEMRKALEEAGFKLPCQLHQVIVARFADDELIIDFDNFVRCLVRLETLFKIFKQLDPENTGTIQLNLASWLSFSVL
UniProt Q38HM4, whole entry: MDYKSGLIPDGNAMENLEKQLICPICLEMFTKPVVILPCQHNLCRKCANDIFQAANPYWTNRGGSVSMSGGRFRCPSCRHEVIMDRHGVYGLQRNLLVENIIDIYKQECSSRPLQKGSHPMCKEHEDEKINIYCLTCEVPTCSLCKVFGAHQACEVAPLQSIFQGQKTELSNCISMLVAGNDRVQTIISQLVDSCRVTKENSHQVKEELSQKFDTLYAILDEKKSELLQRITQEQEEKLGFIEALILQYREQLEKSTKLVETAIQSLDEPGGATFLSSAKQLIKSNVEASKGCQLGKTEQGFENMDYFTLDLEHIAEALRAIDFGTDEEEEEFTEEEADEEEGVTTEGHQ
UniProt O35350, whole entry: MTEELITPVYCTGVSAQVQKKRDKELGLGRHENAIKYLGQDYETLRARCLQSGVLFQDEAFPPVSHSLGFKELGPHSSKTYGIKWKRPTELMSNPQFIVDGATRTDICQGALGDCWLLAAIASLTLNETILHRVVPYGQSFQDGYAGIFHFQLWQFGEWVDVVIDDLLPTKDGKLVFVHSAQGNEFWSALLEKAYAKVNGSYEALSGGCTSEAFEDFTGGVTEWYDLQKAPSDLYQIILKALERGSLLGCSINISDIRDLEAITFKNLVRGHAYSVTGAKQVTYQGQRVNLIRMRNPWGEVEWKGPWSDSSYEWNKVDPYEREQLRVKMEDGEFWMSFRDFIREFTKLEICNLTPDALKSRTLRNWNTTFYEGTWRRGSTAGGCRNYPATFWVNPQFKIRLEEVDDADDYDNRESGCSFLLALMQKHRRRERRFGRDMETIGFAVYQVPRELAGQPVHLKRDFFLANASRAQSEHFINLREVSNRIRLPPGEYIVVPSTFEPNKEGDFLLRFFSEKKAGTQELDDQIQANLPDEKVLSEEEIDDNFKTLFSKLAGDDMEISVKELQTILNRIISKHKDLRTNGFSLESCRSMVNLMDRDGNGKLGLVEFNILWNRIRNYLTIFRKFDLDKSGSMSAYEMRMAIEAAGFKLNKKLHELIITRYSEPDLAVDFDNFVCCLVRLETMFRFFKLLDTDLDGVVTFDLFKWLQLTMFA

The target of experiment [1] is ATAD1 (mouse (endogenous in mouse muscle)) (UniProt Q9D5T0). Briefly: SEC.
Experiment [2] has the same target. Kind of experiment: co-IP.

No constants are given. Whether binding was seen depends on the method and setting. For part of these data: In cells and extracts the contact can be indirect. Some results given as binding are weak or reduced against the parent protein; the word gives no strength.

Turning to “calpain 2 (from UniProt O08529 20-700) (enzyme)”, the binding entry in experiment [1] is recorded as “binds”.
On to “MURF1 (from UniProt Q38HM4 1-350) (enzyme)”, for which the binding entry in experiment [2] is on record as “no binding”.
On to “calpain-1 (from UniProt O35350 1-713) (enzyme)”, for which the binding entry in experiment [2] and in experiment [1] was “binds” throughout.

B1: Phospholipase A-2-activating protein (PLAA) (protein, UniProt P27612 1-794)
chain: MASGASRYRLSCSLPGHELDVRGLVCCLYPPGAFVSVSRDRTTRLWAPDSPNRGFTEMHCMSGHSNFVSCVCIIPSSDIYPHGLIATGGNDHNICIFSLDSPMPLYILKGHKDTVCSLSSGKFGTLLSGSWDTTAKVWLNDKCMMTLQGHTAAVWAVKILPEQGLMLTGSADKTIKLWKAGRCERTFLGHEDCVRGLAILSETEFLSCANDASIRRWQITGECLEVYFGHTNYIYSISVFPNSKDFVTTAEDRSLRIWKHGECAQTIRLPAQSIWCCCVLENGDIVVGASDGIIRVFTESEERTASAEEIKAFERELSQATIDSKTGDLGDINAEQLPGREHLSEPGTREGQTRLIRDGERVEAYQWSVSDGRWIKIGDVVGSSGANQQTSGKVLYEGKEFDYVFSIDVNEGGPSYKLPYNVSDDPWLVAYNFLQKNDLNPMFLDQVAKFIIDNTKGQTLGLGNTSFSDPFTGGGRYVPGTSGPSNTVQTADPFTGAGRYMPGSAGMDTTMTGVDPFTGNSAYRSAASKTVNIYFPKKEALTFDQANPTQILGKLKELNGTAPEEKKLTEDDLVLLEKILSLICNNSSEKPTAQQLQILWKAINWPEDIVFPALDILRLSIKHPNVNENFCNEKGDQFSSHLINLLNPKGKPANQLLALRTFCNCFVSQAGQKLMMSQRESLMSHAIELKSGSNKNIHIALATLTLNYSVCFHKDHNIEGKAQCLSVISTILEVVQDLEATFRLLVALGTLISDDSNAIQLAKSLGVDSQIKKYVSVSEPAKVSECCRLVLHLL
In the case of B1, the binding result in experiment [2] is listed as “binds”.

B2: UBXN4 (protein, UniProt Q8VCH8 1-506)
chain: MLWFQGAIPAAIASAKRSGAVFVVFVAGDDEQSIQMAASWEDEKVTQASSNNFVAIKIDTKSEACLQFSQIYPVVCVPSSFFIGDSGIPLEVIAGSVSADELVTRIHKVQQMHSSKGEASVTNDNQSESSVSTPSASFEPDVCENPESKNTELCETPATSDIKSDTATGGECTGHDSHSQEPHGCSNQRPAEDLTVRVERLTKKLEERREEKRKEEAQREIKKEIERRKTGKEMLDYKRKQEEELTKRMLEERSREKAEDRAARERIKQQIALDRAERAARFAKTKEAEAAKAAALLTKQAGTEVKRESTARDRSTIARIQFRLPDGSSFTNQFPSDAPLEEARQFAAQTVGNTYGNFSLATMFPRREFTREDYKRRLLDLELAPSASVVLLPAGRPATSIVHSSSGDIWTLLGTVLYPFLAIWRLISNFLFSNPPPAQTSARATSTEPSNSASSSKSEKREPVRKRMLEKRGEDFKKEGKIYRLRTQDDGEDENNTWNGNSTQQM
For the molecule B2, the binding entry in experiment [2] is “binds”.
